From ChEMBL document CHEMBL3988442, “University of Dundee, Small-Polar-MMV Screening Library” (2021).

Sequences of proteins named here, by UniProt entry; tags and fusion partners are left off. Residues count along the entry.
UniProt Q8IDJ8, 1-583: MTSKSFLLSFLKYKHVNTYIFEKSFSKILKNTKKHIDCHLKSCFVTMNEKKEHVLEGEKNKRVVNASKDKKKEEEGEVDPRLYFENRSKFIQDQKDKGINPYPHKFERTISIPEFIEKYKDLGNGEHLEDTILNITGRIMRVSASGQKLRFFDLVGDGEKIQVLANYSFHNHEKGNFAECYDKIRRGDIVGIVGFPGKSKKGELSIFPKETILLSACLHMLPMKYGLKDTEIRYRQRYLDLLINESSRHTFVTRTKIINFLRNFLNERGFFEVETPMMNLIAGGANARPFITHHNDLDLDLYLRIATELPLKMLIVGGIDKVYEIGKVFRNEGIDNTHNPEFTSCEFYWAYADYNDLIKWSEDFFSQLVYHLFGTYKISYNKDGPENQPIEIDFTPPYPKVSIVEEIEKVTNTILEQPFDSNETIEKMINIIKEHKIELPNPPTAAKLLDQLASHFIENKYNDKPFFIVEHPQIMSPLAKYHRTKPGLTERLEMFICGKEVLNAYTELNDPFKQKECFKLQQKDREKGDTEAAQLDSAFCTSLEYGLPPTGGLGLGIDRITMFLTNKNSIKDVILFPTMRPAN
UniProt A4I591, 1-473: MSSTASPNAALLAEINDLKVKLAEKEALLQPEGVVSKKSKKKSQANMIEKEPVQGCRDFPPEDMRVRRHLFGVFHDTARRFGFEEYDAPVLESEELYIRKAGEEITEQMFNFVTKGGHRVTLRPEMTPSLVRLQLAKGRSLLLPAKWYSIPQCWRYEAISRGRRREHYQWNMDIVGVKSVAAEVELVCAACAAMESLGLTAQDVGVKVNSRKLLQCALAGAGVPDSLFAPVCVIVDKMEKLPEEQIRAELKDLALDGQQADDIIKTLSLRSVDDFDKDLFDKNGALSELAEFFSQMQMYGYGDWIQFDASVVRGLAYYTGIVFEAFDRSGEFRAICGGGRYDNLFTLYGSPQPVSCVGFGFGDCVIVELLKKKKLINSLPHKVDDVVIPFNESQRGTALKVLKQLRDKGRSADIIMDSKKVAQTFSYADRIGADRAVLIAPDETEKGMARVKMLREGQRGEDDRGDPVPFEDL

A: 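Cell assay of Leishmania donovani living inside macrophages; the read-out is not stated. Concentration: 30 µM. Higher reads as stronger inhibition (inferred: compounds with an IC50 in retests scored well above the rest). About 69,000 compounds were tested under these conditions; 1.5% (about 1,000) showed 50% or more at least once.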
B: 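Lysine-tRNA ligase, Plasmodium falciparum 3D7 (UniProt Q8IDJ8). Enzyme assay of the cytosolic lysyl-tRNA synthetase in 384-well plates, read by luminescence. Concentration: 30 µM. Direction is inferred from only a few compounds that gave an IC50; most scored high, so higher reads as stronger inhibition. Size under these conditions: about 69,000 compounds, about 49 of them at 50% or above in at least one test.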
C: 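Histidine-tRNA ligase, Leishmania infantum (UniProt A4I591). Enzyme assay of histidyl-tRNA synthetase; the read-out is not stated. Concentration: 30 µM. Direction is inferred from retests: higher values go with stronger inhibition. The assay is labelled LdHisRS but filed under L. infantum. About 69,000 compounds were tested under these conditions; 0.6% (about 410) showed 50% or more at least once.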

The filed quantity is “Percent Effect” (%). The controls that fix the scale are not given in the record; negative values are as filed. The compounds are a random part of those screened. Two or more numbers in one place are separate tests of the same structure; such repeats can differ widely. A dash means the value is not listed here; it may have been measured.

SMILES | A | B | C
O=C(C(CNCc1cccc(O)c1)c1ccccc1)N1CCOCC1 (stereo not given) | 17.14 | 5.625 | 38.82
c1cncc(O[C@@H]2CC[C@H]3[C@H]2OCCN3C2CCCC2)c1 | - | 5.088 | 3.226
Cc1cc(NC(=O)CN2CCn3c(nnc3C(C)C)C2)no1 | -8.184 | 3.664 | 26.67
CCC(CC)c1cc(CNC(=O)N2CCOCC2CC)on1 (stereo not given) | 30.44 | -0.1 | 7.547
COc1ccc(Cl)cc1NCC(=O)N(Cc1ccncc1)C1CC1 | 17.76 | -3.787 | -2.618
Cc1nc2c(c(N3CCN(c4ncccc4C(N)=O)CC3)n1)CCNC2 | 40.86 | 5.638 | 12.9
OC(COCc1ccccc1)CN1CC(n2cccn2)C1 (stereo not given) | 9.072 | -3.316 | 35.71
CN(Cc1ccncc1)C(=O)NC1CCS(=O)(=O)C1 (stereo not given) | -15.63 | 4.845 | 18.52
Clc1ccc2nncc(N3CCCCC3)c2c1 | 37.08 | 4.263 | 23.53
Cc1ccc(NC2CCN(C(=O)c3ccc(Cl)cc3F)CC2)nn1 | -1.553 | -2.859 | 4.348
CC1CCN(CCNC(=O)C2CCN(S(N)(=O)=O)CC2)CC1 | -1.504 | 3.975 | 14.42
CC1CCCN(Cc2ccc(CNC(=O)NCc3ccon3)cc2)C1 (stereo not given) | -10.11 | 3.507 | 18.28
CC(=O)N1N=C(c2cccs2)OC1C(=O)NCCc1cccc(Cl)c1 (stereo not given) | 2.789 | -2.381 | 19.8
CCOC1CC2(CCN(C(C)=O)CC2)c2cc(F)ccc21 (stereo not given) | 23.4 | 3.378 | 15.38
CC(C)CN1CCN(C(=O)c2ccncc2F)Cc2cccnc21.O=C(O)C(F)(F)F.O=C(O)C(F)(F)F | 42.5 | - | -
Fc1cccnc1O[C@@H]1CN(Cc2ccco2)[C@@H]2CCCO[C@@H]21 | - | 1.61 | 25.64
O=C(O)C(F)(F)F.[H][C@@]12CN(Cc3ccoc3)CCO[C@]1([H])CN(C(=O)Cc1ccsc1)C2 | 9.64 | - | -
O=C1COc2ccc(S(=O)(=O)NCc3ccccc3)c3c2N1CCC3 | -1.916 | 0.127 | 8.475
CN(C(=O)NCC1(CN2CCOCC2)CCCCC1)C1CC1 | 17.62 | 0.9015 | 7.965
COCCNC(=O)NCCc1ccn(-c2ccccc2)n1 | 26.41 | 5.226 | 24.32
COC(=O)NCC(=O)N(C)Cc1csc(C)n1 | -16.29 | -0.6078 | -3.226
O=C(NCCc1cccs1)[C@]12COC[C@H]1CN(Cc1ccncc1)C2 | - | 2.139 | 16
CC(=O)Nc1ncc(S(=O)(=O)Nc2ccccc2F)s1 | -1.704 | 4.487 | 12.07
CCN1CCN(C(C)CNC(=O)Nc2nnc(C)s2)CC1 (stereo not given) | 43.72 | 4.607 | 11.71
NC(=O)c1cn(CC2CCC2)c(C2CC2)n1 | 34.28 | 2.784 | 16.85
CN1CCC(N(CCc2ccccc2)C(=O)c2ccoc2)CC1 | 23.03 | -2.666 | 9.783
Cn1ccc(NC(=O)NC2CCCN(c3ccccc3Cl)C2=O)n1 (stereo not given) | 7.518 | -4.213 | 17.95
Cc1[nH]ccc1C(=O)N1CCCC(c2nccn2Cc2cscn2)C1 (stereo not given) | 13.03 | -0.6224 | 15.24
CC1CCN(c2cncc(CCC3CCCN3)n2)CC1 (stereo not given) | - | -0.6545 | 24.64
OCCNc1cc(N2CCC(n3cc(C4CCCC4)nn3)CC2)ncn1 | 16.03 | 3.919 | 13.83
CC(C)CN1CC[C@@H]2[C@H](CC1)N(S(C)(=O)=O)CCS2(=O)=O | - | 2.006 | 17.43
[H][C@]12CC[C@]([H])(CC(=O)NC1)N2C1CCSCC1 | 36.72 | - | -
O=C(NC1CCS(=O)(=O)c2ccccc21)c1cccs1 (stereo not given) | 16.94 | 0.4751 | 12.5
C1CCN(CCO[C@@H]2CC[C@H]3[C@H]2OCCN3CC2CCOCC2)C1 | - | 3.802 | 22.22
O=C(O)C(F)(F)F.O=C(O)C(F)(F)F.[H][C@@]12COC[C@]1([H])[C@@H](OCCN(C)C)CN2Cc1ccco1 | 30.5 | - | -
NC(=O)c1ccc(OCC(=O)NC2CCc3c(F)cccc32)cc1 (stereo not given) | -0.6842 | -0.8945 | 9.167
O=c1[nH]cc(Nc2ccccc2)c(=O)[nH]1 | -9.89 | -6.848 | -5.618
CC(C)c1noc(CCC(=O)Nc2cc(F)ccc2F)n1 | -5.304 | -5.105 | 17.14
Cc1ccnc(C2CCN(C(=O)c3cnn(C)c3)CC2)n1 | -26.85 | -1.452 | 6.711
O=C(NCc1ccccc1F)NC1CCCN(c2ncccn2)C1 (stereo not given) | -21.34 | -3.492 | 9.434
c1ccc(OCc2cscn2)c(CNC2CCc3ncnn3C2)c1 (stereo not given) | 28.07 | -0.3949 | 10.19
CCN1CCN(C)C(=O)C12CCN(Cc1cccc(C)c1)CC2.O=C(O)C(F)(F)F | -6.728 | - | -
CS(=O)(=O)N1CCCCC1c1ccc(Nc2cnccn2)nc1 (stereo not given) | 23.81 | 0.426 | 9.79
Cl.O[C@@H]1CN(Cc2ccc(F)c(F)c2)CC[C@H]1NCc1ccccn1 | 7.466 | - | -
CCC[C@H]1CN(CCS(C)(=O)=O)C[C@@H]1NC(=O)c1cc[nH]n1 | 4.358 | 3.149 | 0
COc1cccc(CNCC2CN(C)CCO2)c1 (stereo not given) | 31.79 | -0.7422 | 10.71
O=C1COC2(CCN(c3ncccn3)CC2)CN1Cc1ccccn1 | - | 7.5 | 2.655
COC(=O)c1cccc(CNC(=O)CCC(F)(F)F)c1 | 23.88 | 10.17 | 23.29
CCN(CCO)C[C@@H]1CN(c2cccc(C(F)(F)F)n2)C[C@@H]1CO | -29.87 | 2.789 | 13.25
NC(=O)C(NC1CCN(CC2CCCCC2)CC1)c1ccc(F)cc1 (stereo not given) | 20.44 | 5.89 | 19.61
CNC(=O)COc1ccc(CNCc2cc(F)ccc2F)cc1 | 4.1 | 4.522 | 23.46
Cc1nc(CN2CCO[C@@H]3CN(Cc4ccccn4)CC[C@@H]3C2)cs1 | - | 6.869 | 14.55
O=C(O)C(F)(F)F.O=C(O)C(F)(F)F.O=C(O)C(F)(F)F.O=C(O)C(F)(F)F.[H][C@@]12CN(Cc3ccncc3)C[C@]1([H])OCCN2CCN1CCCC1 | 19.89 | - | -
CC(NC(=O)CCc1cccc(OC2CCCC2)c1)c1nncn1C (stereo not given) | 21.05 | 4.959 | 10.96
CCOCC(O)CN1CCN(C(=O)c2ccc(C)nc2)CC1 (stereo not given) | 29.83 | 0.5549 | 17.86
CS(=O)(=O)Nc1ccc([C@H]2OCC(=O)N[C@@H]2CO)cc1 | 21.96 | 9.362 | 24.32
CCCOC1CCCN(C(=O)c2ccc(S(N)(=O)=O)cc2)C1 (stereo not given) | 20.21 | 3.32 | 11.83
COCCCN(Cc1cnc(C2CCCCC2)nc1)C1CCN(C)CC1 | 25.4 | 1.909 | 11.19
Cn1cc(C2NC3(CCCC3)C(=O)N2CC2CC2)c(=O)n(C)c1=O (stereo not given) | 11.51 | -0.8398 | 9.91
N#Cc1cnc2ccccc2c1N1CCC(C(=O)O)CC1 | 22.01 | 2.441 | 10.87
[H][C@@]12CC[C@H](Oc3ccc(Cl)cc3)[C@]1([H])CN(C(=O)Cn1ccnc1)C2 | -3.948 and 10.41 | - | -
O=C(O)c1cc(-c2ccncc2)cc(S(=O)(=O)NCc2ccccn2)c1 | 12.47 | 5.391 | 10.26
O=C(NCCn1ccnc1)N1CCN(Cc2ccsc2)CC1 | 19.84 | -2.158 | 11.54
COc1ccc(OCCNC(=O)c2ccc3c(=O)[nH][nH]c(=O)c3c2)cc1 | -12.8 | 1.378 | 10.42
CN1CCC(c2nnc3ccc(C(=O)NC4CCCC4)cn23)C1.O=C(O)C(F)(F)F (stereo not given) | 23.32 | - | -
Cc1nc(C(NC(=O)CC(F)(F)F)c2ccc(Cl)cc2)no1 (stereo not given) | 2.878 | 2.953 | 17.24
COC[C@@H]1CCC[C@]12CN(S(=O)(=O)c1cn(C)cn1)CCO2 | 14.52 | 2.869 | 7.692
CCC(CNC(=O)N1CCOCC2(CCOCC2)C1)c1ccccc1 (stereo not given) | 11.07 | 5.144 | 6.494
Cn1cc(CN2CCC(F)(F)C3(CCN(c4ccccn4)C3)C2)cn1.O=C(O)C(F)(F)F.O=C(O)C(F)(F)F (stereo not given) | -28.18 | - | -
COc1coc(C(=O)Nc2nc(-c3cccnc3)cs2)cc1=O | -30.34 | -1.007 | 16.48
Cn1ncc(N2CCC(CNC(=O)[C@@H](N)c3ccccc3)CC2)cc1=O | 13.88 | -2.143 | 17.74

For reference, 6 entries once more:

SMILES	A	B	C
CC(NC(=O)CCc1cccc(OC2CCCC2)c1)c1nncn1C (stereo not given)	21.05	4.959	10.96
COCCNC(=O)NCCc1ccn(-c2ccccc2)n1	26.41	5.226	24.32
CC1CCN(c2cncc(CCC3CCCN3)n2)CC1 (stereo not given)	-	-0.6545	24.64
O=C(O)C(F)(F)F.O=C(O)C(F)(F)F.[H][C@@]12COC[C@]1([H])[C@@H](OCCN(C)C)CN2Cc1ccco1	30.5	-	-
O=C(NCc1ccccc1F)NC1CCCN(c2ncccn2)C1 (stereo not given)	-21.34	-3.492	9.434
Cc1nc2c(c(N3CCN(c4ncccc4C(N)=O)CC3)n1)CCNC2	40.86	5.638	12.9